# Test results published in PubChem BioAssay AID1671190 (National Center for Advancing Translational Sciences (NCATS), 2021).
# The chains behind the UniProt entries cited, without tags or fusion partners. Where a name states a change or a piece, a line headed by the entry shows the natural chain unless it says otherwise.
# UniProt P18054: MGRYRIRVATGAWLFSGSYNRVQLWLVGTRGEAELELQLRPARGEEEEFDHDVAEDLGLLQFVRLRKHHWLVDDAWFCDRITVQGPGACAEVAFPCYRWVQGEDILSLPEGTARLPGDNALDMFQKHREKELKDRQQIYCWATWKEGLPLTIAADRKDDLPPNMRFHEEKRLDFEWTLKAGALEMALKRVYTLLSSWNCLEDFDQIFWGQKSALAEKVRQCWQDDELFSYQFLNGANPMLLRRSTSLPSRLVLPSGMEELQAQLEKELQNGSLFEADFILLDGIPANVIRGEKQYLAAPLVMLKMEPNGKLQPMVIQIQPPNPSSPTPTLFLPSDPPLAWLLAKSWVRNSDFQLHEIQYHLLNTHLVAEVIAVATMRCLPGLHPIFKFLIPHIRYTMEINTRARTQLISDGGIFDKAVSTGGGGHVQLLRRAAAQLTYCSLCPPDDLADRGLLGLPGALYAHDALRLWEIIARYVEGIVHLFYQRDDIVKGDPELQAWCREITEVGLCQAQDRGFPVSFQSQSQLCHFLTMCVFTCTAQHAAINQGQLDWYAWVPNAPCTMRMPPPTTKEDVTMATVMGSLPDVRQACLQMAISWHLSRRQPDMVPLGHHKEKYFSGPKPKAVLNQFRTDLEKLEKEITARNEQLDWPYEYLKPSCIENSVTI
# Values joined by “and” are separate entries in the source; they are usually repeats but may differ in a detail not shown here. Equal values may be shown once. Out of some 580,000 compounds screened, about 6,100 (1.1%) were called active. Inconclusive means that the source gave no clear call. Such entries were picked first, then a sample of the others. The call rests on the fitted dose curve; in most records, active means well fitted inhibition curve with a large enough effect; inconclusive means small, poorly fitted or top-dose-only effect, or another doubt; inactive means no such curve, though single readings can be large or run the other way. A potency beside an inconclusive call is a rough fit, not a confirmed value.
# Molecular target: Polyunsaturated fatty acid lipoxygenase ALOX12 (Homo sapiens) (UniProt P18054)
# Assay: Primary qHTS assay for inhibitors of human arachidonate 12S-lipoxygenase (ALOX12): Round 2
# Settings: purified 12hLO, xylenol orange hydroperoxide absorbance; series mostly up to 108 µM
# Procedure, shortened: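 Hydroperoxide product was detected by ferrous iron/xylenol orange as the 573 to 405 nm absorbance ratio. Arachidonic acid at 40 uM (final) was turned over for 30 min at room temperature by 150 nM human 12hLO, pH 7.0 Hepes buffer, after 15 min compound preincubation.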
# Potency means the concentration at half of the fitted maximal effect.
row,Structure (SMILES),Potency
1,CCCOP(=O)(c1ccc(N(C)C)cc1)C(Nc1ccccc1)c1ccc(C)cc1 (configuration not stated),"inconclusive: 141 µM [inhibitor, partial curve, poor fit]"
2,O=C(O)[C@@H]1CN(C(=O)c2ccc(=O)[nH]c2)C[C@H]1c1ccc2c(c1)OCO2,inactive
3,Cc1nn(Cc2ccc(Cl)cc2)c(C)c1N,"inconclusive: 100 µM [inhibitor, single point]"
4,O=C(CC1CCCC1)NCC(=O)N1CCCCCCNC(=O)CC1c1ccccc1 (configuration not stated),inactive
5,COc1cc(/C=C/C(=O)Nc2ccc(OC)c(S(=O)(=O)N3CCOCC3)c2)ccc1OC(F)F,inactive
6,O=C(Oc1ccc(Br)cc1)c1cccnc1,"inconclusive: 31.6 µM [inhibitor, single point]"
7,O=C1CCC(=O)c2ccc3c4c(ccc1c24)CC3,"inconclusive: 44.7 µM [inhibitor, partial curve, poor fit]"
8,CC(C)C1C(=O)N(Cc2cn(CCC3OCCO3)nn2)CCS(=O)(=O)N1Cc1ccc(-c2ccc(F)nc2)cc1 (configuration not stated),"inconclusive: 89.1 µM [inhibitor, partial curve, poor fit]"
9,CCN(CC(=O)NCc1cccs1)C(=O)/C=C/c1ccc(Cl)c(Cl)c1,"inconclusive: 35.5 µM [inhibitor, partial curve, poor fit]"
10,CC(C)CN1C(=O)C(=O)N(CC(=O)N2c3ccccc3NC(=O)CC2C)C1=O (configuration not stated),"inconclusive: 79.4 µM [inhibitor, single point]"
11,COc1ccc2[nH]c3c(c2c1)CCN1C(=O)N([C@@H](C)C(=O)NCc2ccco2)C(=O)[C@]31C,inactive
12,O=C(CSc1nc(-c2ccccc2)cs1)Nc1ccc(OC(F)F)cc1,"inconclusive: 4.47 µM [inhibitor, full curve, poor fit]"
13,Cc1ccc2[nH]c(C)c(CC(=O)O)c2c1,"inconclusive: 31.6 µM [inhibitor, partial curve, poor fit]"
14,Cc1ccc(OCCCCn2nnc3sc4c(c3c2=O)CCC(C)C4)cc1 (configuration not stated),"inconclusive: 56.2 µM [inhibitor, partial curve, poor fit]"
15,OC(COCc1ccco1)CN1CCN(C(c2ccccc2)c2ccccc2)CC1 (configuration not stated),"inconclusive: 0.398 µM [inhibitor, full curve, poor fit]"
16,O=C(O)c1ccc(CNC2CCCCC2)cc1,"inconclusive: 39.8 µM [inhibitor, partial curve, poor fit]"
17,Cc1c(NC(=O)C(=O)/C=C(\O)c2ccc(Br)cc2)c(=O)n(-c2ccccc2)n1C,"inconclusive: 25.1 µM [inhibitor, partial curve, poor fit]"
18,CCCN1C(=O)C2(C(C(=O)c3ccc(C)o3)=C(O)C(=O)N2CCCOC)c2ccccc21 (configuration not stated),"inconclusive: 39.8 µM [inhibitor, partial curve, poor fit]"
19,CC(C)CC1CC(=O)OC1(C)C(=O)CSc1nc2ccccc2s1 (configuration not stated),"inconclusive: 31.6 µM [inhibitor, partial curve, poor fit]"

row,Structure (SMILES),Potency
1,Cc1cc2nc3n(c(=O)c2n1CC(=O)Nc1cc(F)cc(F)c1)CCCCC3,"inconclusive: 79.4 µM [inhibitor, single point]"
2,CCN(CC)S(=O)(=O)c1ccc2c(c1)N(CC(=O)NCCCN1CCN(c3cc(C)ccc3C)CC1)C(=O)CO2,"inconclusive: 89.1 µM [inhibitor, partial curve, poor fit]"
3,CC(=O)N(Cc1ccccc1)Cc1cc2cccc(C)c2[nH]c1=O,"inconclusive: 126 µM [inhibitor, single point]"
4,CC(=O)Nc1ccc(S(=O)(=O)N2CCC(c3nc4c(nnn4Cc4ccccc4Cl)c(=O)[nH]3)CC2)cc1,"inconclusive: 31.6 µM [inhibitor, partial curve, poor fit]"
5,COc1cc(SC)ccc1C(=O)OCC(=O)NC1CC1,inactive
6,Cc1nn2c(NCCc3ncc[nH]3)cc(-c3ccccc3)nc2c1C,inactive
7,Nc1ccc(OCCCc2c(N)nc(N)nc2N)cc1,inactive
8,CN1CCN(C2(CNC(=O)COc3ccc(C(C)(C)C)cc3)CCCCC2)CC1,"inconclusive: 79.4 µM [inhibitor, partial curve, poor fit]"
9,Cc1nc(N2CCC(C(=O)NCc3ccc(C(C)C)cc3)CC2)cc(C(F)(F)F)n1,"inconclusive: 44.7 µM [inhibitor, partial curve]"
10,COc1ccc(OC)c(NC(=O)CCN2CCN(C)CC2)c1,"inconclusive: 39.8 µM [inhibitor, partial curve, poor fit]"
11,COc1ccc(C[C@H](NC(=O)C2=C[C@@H](NC(=O)Nc3ccc(C)cc3)[C@@H](O)[C@H](O)C2)C(N)=O)cc1,"inconclusive: 39.8 µM [inhibitor, single point]"
12,CCOc1ccc(S(=O)(=O)N2CCN(c3ncccn3)CC2)cc1,"inconclusive: 0.631 µM [inhibitor, full curve, poor fit]"
13,CCOCc1[nH]c(=S)[nH]c(=O)c1Cc1ccc(OCC)cc1,"inconclusive: 44.7 µM [inhibitor, partial curve, poor fit]"
14,COc1cccc(Cn2cc(C)cc(NC(=O)NCc3ccccc3)c2=O)c1,"inconclusive: 2.82 µM [inhibitor, full curve]"
15,O=[N+]([O-])c1ccc(/C=C2/CCCC3C2=NN(c2ccc([N+](=O)[O-])cc2)C3c2ccc([N+](=O)[O-])cc2)cc1 (configuration not stated),"inconclusive: 31.6 µM [inhibitor, partial curve]"
16,COc1ccccc1N1C(=O)C(Cc2ccccc2)N=C1N1CCN(C)CC1 (configuration not stated),"inconclusive: 44.7 µM [inhibitor, partial curve, poor fit]"
17,CC(Sc1ccc2c(c1)CCC2)C(=O)Nc1ccc(C(N)=O)cc1 (configuration not stated),"inconclusive: 50.1 µM [inhibitor, single point]"
18,COc1ccc(NC(=O)N2CC(C)OC(C)C2)cc1OC (configuration not stated),inactive
19,COc1cc(-c2cnc3c(NC=O)cc(-c4ccc(C)cc4)cn23)cc(OC)c1OC,"inconclusive: 44.7 µM [inhibitor, partial curve, poor fit]"

# Looked up above.
# Potency, O=[N+]([O-])c1ccc(/C=C2/CCCC3C2=NN(c2ccc([N+](=O)[O-])cc2)C3c2ccc([N+](=O)[O-])cc2)cc1 (configuration not stated) is entered as inconclusive: 31.6 µM [inhibitor, partial curve]
# Potency, CC(Sc1ccc2c(c1)CCC2)C(=O)Nc1ccc(C(N)=O)cc1 (configuration not stated) is entered as inconclusive: 50.1 µM [inhibitor, single point]
# Potency, CCCN1C(=O)C2(C(C(=O)c3ccc(C)o3)=C(O)C(=O)N2CCCOC)c2ccccc21 (configuration not stated) is entered as inconclusive: 39.8 µM [inhibitor, partial curve, poor fit]
# Potency, OC(COCc1ccco1)CN1CCN(C(c2ccccc2)c2ccccc2)CC1 (configuration not stated) is entered as inconclusive: 0.398 µM [inhibitor, full curve, poor fit]
# Potency, COc1cccc(Cn2cc(C)cc(NC(=O)NCc3ccccc3)c2=O)c1 is entered as inconclusive: 2.82 µM [inhibitor, full curve]

# (list continues)

row,Structure (SMILES),Potency
1,COc1ccc(CNc2ncnc3ccc(-c4c(C)noc4C)cc23)c(OC)c1,"inconclusive: 12.6 µM [inhibitor, full curve, poor fit]"
2,Cc1ccccc1NS(=O)(=O)c1ccc2c(c1)-c1oncc1CO2,"inconclusive: 50.1 µM [inhibitor, partial curve, poor fit]"
3,CCc1nc(Nc2ccccc2F)c2oc3ccccc3c2n1,"inconclusive: 25.1 µM [inhibitor, partial curve]"
4,CC(NC(=O)COc1cccnc1[N+](=O)[O-])c1ccc(Cl)cc1Cl (configuration not stated),"inconclusive: 25.1 µM [inhibitor, partial curve, poor fit]"
5,CC(C)c1ccc([C@@H]2O[C@H](CCc3ccccc3)Cc3[nH][nH]c(=O)c32)cc1,"inconclusive: 44.7 µM [inhibitor, partial curve, poor fit]"
6,CCC(C(=O)NC1CCCC1)N(C(=O)Cn1nnc(-c2ccc(C)o2)n1)c1ccc(OC)c(OC)c1 (configuration not stated),"inconclusive: 100 µM [inhibitor, partial curve, poor fit]"
7,COc1ccc(N2CCN(CC(O)COc3ccc(F)cc3)CC2)cc1 (configuration not stated),"inconclusive: 35.5 µM [inhibitor, single point]"
8,COc1cc(NC(=O)Nc2ccc(F)cc2F)c(OC)cc1Cl,"inconclusive: 35.5 µM [inhibitor, partial curve, poor fit]"
9,CN(C)C(=O)C(CCN1CCC(O)(c2ccc(Cl)cc2)CC1)(c1ccccc1)c1ccccc1,"inconclusive: 43.2 µM [inhibitor, partial curve, poor fit] and inconclusive: 50.1 µM [inhibitor, partial curve, poor fit]"
10,NC(=O)c1ccc([N+](=O)[O-])cc1SCc1ccccc1,"inconclusive: 35.5 µM [inhibitor, partial curve, poor fit]"
11,CN(C)CCCOc1ccc(-c2cnc(N)cn2)cn1,"inconclusive: 8.91 µM [inhibitor, full curve, poor fit]"
12,O=Cc1cccc(-c2cncc(C(=O)O)c2)c1,"inconclusive: 10 µM [inhibitor, full curve, poor fit]"
13,COc1ccc(-c2ccc3c(c2)S(=O)(=O)c2cccc(C(=O)N4CCN(C5CCCCC5)CC4)c2C3=O)cc1OC,inactive
14,CN[C@H]1[C@@H](O)[C@@H]2O[C@@H]3O[C@H](C)CC(=O)[C@]3(O)O[C@@H]2[C@@H](NC)[C@H]1O,"inconclusive: 44.7 µM [inhibitor, partial curve, poor fit]"
15,COC1/C=C\OC2(C)Oc3c(C)c(O)c4c(c3C2=O)C2(C=C(NC(=O)/C(C)=C\C=C/C(C)C(O)C(C)C(O)C(C)C(OC(C)=O)C1C)C4=O)OCC(=O)O2 (configuration not stated),active: 5.01 µM
16,CC(=O)c1ccc(NC(=O)CSc2ccc(-c3ccc(-n4cccn4)cc3)nn2)cc1,"inconclusive: 79.4 µM [inhibitor, partial curve, poor fit]"
17,COc1ccc(-c2cc(C[C@@H]3CC[C@H](O)[C@@H](CNC4CCOCC4)O3)no2)cc1,"inconclusive: 100 µM [inhibitor, partial curve, poor fit]"
18,COc1cccc(-c2cc3c(ccn3C(C)C)c(C(=O)NCc3c(C)cc(C)[nH]c3=O)n2)c1,"inconclusive: 89.1 µM [inhibitor, partial curve, poor fit]"
19,Cc1cc2cc(NC(=O)c3ccco3)ccc2[nH]1,inactive
